Reference: patent publication US10758517B2, “mPGES-1 inhibitor for the treatment of osteoarthritis pain” (Glenmark Pharmaceuticals S.A., priority 2017, dated 2020)
At least one compound was matched to its structure with a doubt left.

Tested on: LPS-induced PGE2 release
Test: Ex vivo LPS-induced PGE2 release in whole blood, single dose crossover versus celecoxib (Example 1, Part 3)
Parameters: species or system human
Details: single oral dose 400 mg
Description: Part 2 was a single-dose, double-blind study in a single cohort of elderly subjects. Part 3 was an open-label, randomized, 2-period, single-dose, crossover study to compare effects of the highest tolerated Compound I dose and celecoxib on prostanoid metabolism in healthy adult subjects.
In Part 3, Compound I was administered at a dose of 1000 mg after fasting. All subjects received Compound I and all subjects received 400 mg celecoxib in a cross-over study design.
In Parts 1a and 3, whole blood samples were incubated and analyzed for lipopolysaccharide (LPS)-induced prostaglandin PGE2 release. In Part 3, urine samples were collected for analysis of prostanoid metabolites.
Summary statistics were presented for the PK, pharmacodynamic (PD) and safety data, as appropriate. PK parameters following single oral doses of Compound I were determined from the plasma concentrations of Compound I using non-compartmental procedures in WinNonlin Dose proportionality was assessed using a power model, with tmax analyzed using the Kruskal-Wallis test. The effect of food on PK was assessed at the 100 and 250 mg doses using a mixed effects model. The effect of age on PK was assessed for elderly (>65 years) versus non-elderly (<65 years) at the 250 mg dose level in Parts 1a and 2, using an analysis of variance (ANOVA) with age as a fixed effect. […]

With Cc1ccc(-c2cc(C(F)(F)F)nn2-c2ccc(S(N)(=O)=O)cc2)cc1 [Celecoxib, celecoxib, reference compound] the duration of effect was “no inhibition seen from 48 hours post-dose onwards”.
